Assay results: article doi:10.1101/2023.02.03.527076
Results are given in words; binding and its absence hold for the method and conditions named. For some assays here: Binding seen in cells or lysates may run through a third protein. Some results given as binding are weak or reduced against the parent protein; the word gives no strength. For some assays here: Sequences can lack the tags named with a protein. Blank lines part the entries; values can stand above or below the molecule they belong to.

Chains of the proteins cited; added tags and fusions are not shown. Lines headed by an entry give the natural chain unless they say otherwise; changes in a name come on top.
UniProt Q3E8W4: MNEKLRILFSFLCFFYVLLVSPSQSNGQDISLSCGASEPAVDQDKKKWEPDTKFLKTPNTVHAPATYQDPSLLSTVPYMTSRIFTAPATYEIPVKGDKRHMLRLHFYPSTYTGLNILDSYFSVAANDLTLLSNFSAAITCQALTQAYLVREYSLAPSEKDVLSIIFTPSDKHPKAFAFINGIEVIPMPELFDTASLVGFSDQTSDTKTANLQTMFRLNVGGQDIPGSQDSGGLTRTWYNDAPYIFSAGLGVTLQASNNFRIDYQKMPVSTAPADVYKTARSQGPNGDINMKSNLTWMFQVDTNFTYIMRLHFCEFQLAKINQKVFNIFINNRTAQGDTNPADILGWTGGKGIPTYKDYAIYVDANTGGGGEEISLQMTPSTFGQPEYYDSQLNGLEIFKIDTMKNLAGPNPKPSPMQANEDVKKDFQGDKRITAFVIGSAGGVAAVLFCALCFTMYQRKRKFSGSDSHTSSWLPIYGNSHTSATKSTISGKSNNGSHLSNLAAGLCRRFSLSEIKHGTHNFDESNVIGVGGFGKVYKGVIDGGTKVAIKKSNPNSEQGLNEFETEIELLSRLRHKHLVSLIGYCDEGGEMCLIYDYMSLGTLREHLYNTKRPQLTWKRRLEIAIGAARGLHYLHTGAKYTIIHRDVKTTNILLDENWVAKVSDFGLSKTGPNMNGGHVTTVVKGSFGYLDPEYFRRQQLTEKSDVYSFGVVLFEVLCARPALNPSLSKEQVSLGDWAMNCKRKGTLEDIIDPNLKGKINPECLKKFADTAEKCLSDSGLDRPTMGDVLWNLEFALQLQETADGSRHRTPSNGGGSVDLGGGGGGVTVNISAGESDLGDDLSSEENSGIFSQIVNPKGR

Key:
[1] = target: T1, AtSYP31 (yeast two-hybrid fusion) (Arabidopsis thaliana) (UniProt Q9FFK1); assay: two-hybrid
T1 sequence: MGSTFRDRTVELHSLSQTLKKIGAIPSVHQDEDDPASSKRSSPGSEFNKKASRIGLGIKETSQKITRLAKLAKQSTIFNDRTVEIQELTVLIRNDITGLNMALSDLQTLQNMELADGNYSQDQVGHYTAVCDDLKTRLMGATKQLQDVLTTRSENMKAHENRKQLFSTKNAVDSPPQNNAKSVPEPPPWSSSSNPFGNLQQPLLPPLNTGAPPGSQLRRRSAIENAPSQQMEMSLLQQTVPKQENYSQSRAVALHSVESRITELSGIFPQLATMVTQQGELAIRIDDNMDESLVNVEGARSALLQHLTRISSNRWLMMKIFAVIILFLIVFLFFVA

[2] = target: T2, AtSYP32 (yeast two-hybrid fusion) (Arabidopsis thaliana) (UniProt Q9LK09); assay: two-hybrid
T2 sequence: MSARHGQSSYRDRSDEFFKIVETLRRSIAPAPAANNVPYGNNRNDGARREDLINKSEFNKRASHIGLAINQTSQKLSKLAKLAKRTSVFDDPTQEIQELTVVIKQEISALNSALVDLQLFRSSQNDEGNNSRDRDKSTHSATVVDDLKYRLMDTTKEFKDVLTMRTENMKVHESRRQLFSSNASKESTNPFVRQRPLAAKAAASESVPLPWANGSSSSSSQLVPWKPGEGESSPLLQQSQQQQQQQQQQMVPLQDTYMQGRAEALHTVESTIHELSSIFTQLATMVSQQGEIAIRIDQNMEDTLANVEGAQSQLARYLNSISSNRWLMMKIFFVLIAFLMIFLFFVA

[3] = target: LUC^N-AtSYP32 (Arabidopsis thaliana) (UniProt Q9LK09); assay: split reporter

binding [1]: binds
binding [2]: binds
B2: SEC31B (yeast two-hybrid fusion) (protein, UniProt Q8L611 1-1104)
chain: MACIKGVGRSASVALAPDAPYMAAGTMAGAVDLSFSSSANLEIFKLDFQSDDRDLPLVGEIPSSERFNRLAWGRNGSGSEEFALGLIAGGLVDGNIDLWNPLSLIGSQPSENALVGHLSVHKGPVRGLEFNAISSNLLASGADDGEICIWDLLKPSEPSHFPLLKGSGSATQGEISFISWNRKVQQILASTSYNGTTVIWDLRKQKPIINFADSVRRRCSVLQWNPNVTTQIMVASDDDSSPTLKLWDMRNIMSPVREFTGHQRGVIAMEWCPSDSSYLLTCAKDNRTICWDTNTAEIVAELPAGNNWNFDVHWYPKIPGVISASSFDGKIGIYNIEGCSRYGVEENNFGTAPLKAPKWYKRPVGASFGFGGKLVSCHARAPAKGTSSILSEVFLHSLVTEQSLVSRTSEFEAAIENGDMTSLRGLCEKKSEETESEEEKETWGLLKIMFEEEGTSRTKLISHLGFTLPVAEKDQAVDGLSSDLNGIRLEDTAADALDLDDSNEAAAFAMDNGEDFFNNFPAKPDTPVSTSAKDFMPSDTDFSTKGEETQEMQEEEEESSDPVFDNAIQRALIVGDYKEAVDQCITANKMADALVIAHVGGTALWESTREKYLKTSSAPYMKVVSAMVNNDLRSLIYTRSHKFWKETLALLCTFAQGEQWTTLCDALASKLMAAGNTLAAVLCYICAGNVDRTVEIWSRSLANERDGRSYAELLQDLMEKTLVLALATGNKKFSASLCKLFESYAEILASQGLLTTAMKYLKVLDSGGLSPELSILRDRISLSAEPETNTTASGNTQPQSTMPYNQEPTQAQPNVLANPYDNQYQQPYTDSYYVPQVSHPPMQQPTMFMPHQAQPAPQPSFTPAPTSNAQPSMRTTFVPSTPPALKNADQYQQPTMSSHSFTGPSNNAYPVPPGPGQYAPSGPSQLGQYPNPKMPQVVAPAAGPIGFTPMATPGVAPRSVQPASPPTQQAAAQAAPAPATPPPTVQTADTSNVPAHQKPVIATLTRLFNETSEALGGARANTTKKREIEDNSRKLGALFVKLNSGDISKNAADKLAQLCQALDNNDFSTALQIQVLLTTSEWDECNFWLATLKRMMVKARQNVR

binding [1]: no binding
binding [2]: binds
B4: SEC22 (yeast two-hybrid fusion) (protein, UniProt Q94AU2 1-218)
chain: MVKMTLIARVTDGLPLAEGLDDGRDLPDSDMYKQQVKALFKNLSRGQNDASRMSVETGPYVFHYIIEGRVCYLTMCDRSYPKKLAFQYLEDLKNEFERVNGPNIETAARPYAFIKFDTFIQKTKKLYQDTRTQRNIAKLNDELYEVHQIMTRNVQEVLGVGEKLDQVSEMSSRLTSESRIYADKAKDLNRQALIRKWAPVAIVFGVVFLLFWVKNKLW

binding [2]: binds
B5: SFT12 (yeast two-hybrid fusion) (protein, UniProt Q8L9S0 1-134)
chain: MASNRGAGGSLYGGADPYRSREGLSTRNASGSEEIQLRIDPMHSDLDDEILGLHGQVRQLKNIAQEIGSEAKSQRDFLDELQMTLIRAQAGVKNNIRKLNLSIIRSGNNHIMHVVLFALLLFFILYMWSKMFKR

binding [2]: binds
B6: SFT11 (yeast two-hybrid fusion) (protein, UniProt Q8VXX9 1-137)
chain: MASNPHRSGAGGSLYGGAAPYRSREGLSTRNAAGSEEIQLRIDPMHSDLDDEITGLHGQVRQLKNIAQEIGSEAKFQRDFLDELQMTLIRAQAGVKNNIRKLNMSIIRSGNNHIMHVVLFALLVFFVLYIWSKMFKR

binding [2]: binds
B8: VAMP714 (yeast two-hybrid fusion) (protein, UniProt Q9FMR5 1-221)
chain: MAIVYAVVARGTVVLAEFSAVTGNTGAVVRRILEKLSPEISDERLCFSQDRYIFHILRSDGLTFLCMANDTFGRRVPFSYLEEIHMRFMKNYGKVAHNAPAYAMNDEFSRVLHQQMEFFSSNPSVDTLNRVRGEVSEIRSVMVENIEKIMERGDRIELLVDKTATMQDSSFHFRKQSKRLRRALWMKNAKLLVLLTCLIVFLLYIIIASFCGGITLPSCRS

binding [1]: no binding
binding [2]: binds
B10: XyG xylosyltransferase XXT5 (yeast two-hybrid fusion) (enzyme, UniProt Q9CA75 1-457)
chain: MGQDGSPAHKRPSGSGGGLPTTTLTNGGGRGGRGGLLPRGRQMQKTFNNIKITILCGFVTILVLRGTIGVGNLGSSSADAVNQNIIEETNRILAEIRSDSDPTDLDEPQEGDMNPNATYVLGPKITDWDSQRKVWLNQNPEFPSTVNGKARILLLTGSPPKPCDNPIGDHYLLKSVKNKIDYCRLHGIEIVYNMAHLDKELAGYWAKLPMIRRLMLSHPEVEWIWWMDSDALFTDILFQIPLARYQKHNLVIHGYPDLLFDQKSWIALNTGSFLLRNCQWSLDLLDAWAPMGPKGPIRDEAGKVLTAYLKGRPAFEADDQSALIYLLLSQKDTWMEKVFVENQYYLHGFWEGLVDRYEEMIEKYHPGLGDERWPFVTHFVGCKPCGSYADYAVERCLKSMERAFNFADNQVLKLYGFSHRGLLSPKIKRIRNETVSPLEFVDKFDIRRTPVETKPQN

Second part, the molecule before the results:

Molecule: ANX2 (yeast two-hybrid fusion) (from UniProt Q3E8W4 1-858) (receptor)
binding [1]: no binding
binding [2]: binds

Molecule: LUC^C-XXT5 (from UniProt Q9CA75 1-457) (enzyme)
binding [3]: binds

Molecule: LUC^C-BET12 (from UniProt Q94CG2 1-130)
binding [3]: binds

Molecule: LUC^C-ANX2 (from UniProt Q3E8W4 28-858) (receptor)
binding [3]: no binding

B1: BET12 (yeast two-hybrid fusion) (protein, UniProt Q94CG2 1-130)
chain: MNFRRENRASRTSLFDGLDGLEEGRLRASSSYAHDERDNDEALENLQDRVSFLKRVTGDIHEEVENHNRLLDKVGNKMDSARGIMSGTINRFKLVFEKKSNRKSCKLIAYFVLLFLIMYYLIRLLNYIKG
binding [1]: no binding
binding [2]: binds

B3: MEMB11 (yeast two-hybrid fusion) (protein, UniProt Q9SJL6 1-225)
chain: MASGIVEGGGSLSDVYSSAKRILLKARDGIERLERFESSSMDSPDLASSVKRDITEVRSLCSNMDTLWRSIPVKSQRDLWRRKTEQVGEEAEYLNLSLEKYMSRNQRKMLEAKERADLLGRASGEGAHILQIFDEEAQAMSSVKNSKRMLEESFSSGVAILSKYAEQRDRLKSAQRKALDVLNTVGLSNSVLRLIERRNRVDTWIKYAGMIATLVILYLFIRWTR
binding [1]: no binding
binding [2]: binds

B7: MEMB12 (yeast two-hybrid fusion) (protein, UniProt Q9FK28 1-219)
chain: MASGTVGGLSEVYSSAKRILLRARNGIEKLERFDSDPTDLASSVKRDITEVQSLCSNMDGLWRSIPVKSQRDLWRRKSEQVGEEAEYLNQSLEKYMWRNQRKMLEAKERADLLGRGSGEGAHILQIFDEEAQGMNSVKNSKRMLEDSFQSGVAILSKYAEQRDRLKSAQRKALDVLNTVGLSNSVLRLIERRNRVDTWIKYAGMIATLVILYLFIRWTR
binding [2]: binds

B9: GOS11 (yeast two-hybrid fusion) (protein, UniProt Q9LMP7 1-223)
chain: MDVPSSWDALRKQARKIEAQLDEQMHSYRRLVSTKALSKSDGNESDLEAGIDLLLRQLQQVNAQMQAWVSSGGSEMVSHTLTRHQEILQDLTQEFYRHRSSLRAKQEHASLLEDFREFDRTRLDLEDGYGSEQALIKEHMGINRNTAQMDGVISQAQATLGTLVFQRSTFGGINSKLSNVASRLPTVNTILAAIKRKKSMDTIILSLVAAVCTFLIFIYWITK
binding [2]: binds

B11: BET11 (yeast two-hybrid fusion) (protein, UniProt Q9M2J9 1-122)
chain: MNPRREPRGGRSSLFDGIEEGGIRAASSYSHEINEHENERALEGLQDRVILLKRLSGDINEEVDTHNRMLDRMGNDMDSSRGFLSGTMDRFKTVFETKSSRRMLTLVASFVGLFLVIYYLTR
binding [1]: no binding
binding [2]: binds

B12: GOS12 (yeast two-hybrid fusion) (protein, UniProt O22151 1-257)
chain: MTESSLDLQESGWEELRREARKIEGDLDVKLSSYAKLGARFTQGDTDLVMNYEKVLKCVLVSGYVDTGSPTVGSGRSWKSMEMEIQSLLEKLLDINDSMSRCAASAAPTTSVTQKLARHRDILHEYTQEFRRIKGNINSLREHAELLSSVRDDISEYKASGSMSPGVQVLRERASIHGSISHIDDVIGQAQATRAVLGSQRSLFSDVQGKVKNLGDKFPVIRGLLGSIKRKRSRDTLILSAVIAACTLFLIIYWLSK
binding [2]: binds
